PubChem BioAssay AID1259276, Sanger Institute, 2017
Test: 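Find kinases whose silencing cuts viability alone or combined with BYL719, cetuximab or trametinib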 (primary screen). Cell system: human C2BBe1 colorectal cancer cells. Knock-down reagent: siRNA pool against human genes. Challenge: DMSO vehicle, or one anchor drug: BYL719 at 1 µM, cetuximab at 5 µg/ml, or trametinib at 10 nM; exposure length not stated. Measured: 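Viability after knock-down relative to non-targeting siRNA controls, averaged across replicates, given as ratio and control-derived robust z-score, with per-drug synergy scores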. Direction: viability robust z-score, siRNA alone and viability vs control, siRNA alone: higher = more viable cells after knock-down; synergy score with BYL719: higher = stronger combined killing with BYL719; synergy score with cetuximab: higher = stronger combined killing with cetuximab; synergy score with trametinib: higher = stronger combined killing with trametinib. Call rule: 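Called essential when knock-down alone gives a viability robust z-score below -3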. Calls: active = essential (siRNA alone); inactive = no change (siRNA alone).
This is an unselected part of 794 reagents tested. 24 of all reagents (3%) count as active. 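Calls come only from the siRNA-alone arm; drug synergy scores do not affect them.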 A number with no mark means an inactive call. No viability above 1 is reported: the scale is capped. No sequences are given here. Not stated in the record: the amount of reagent, the time to read-out.

Target gene	viability robust z-score, siRNA alone	viability vs control, siRNA alone	synergy score with BYL719	synergy score with cetuximab	synergy score with trametinib
STK25 (serine/threonine kinase 25)	0.472	1	-0.142	-0.0115	-0.0667
CRKL (CRK like proto-oncogene, adaptor protein)	0.472	1	-0.142	-0.00505	-0.0667
TP53BP1 (tumor protein p53 binding protein 1)	0.472	1	0.0782	0.0341	-0.0667
MAP4K2 (mitogen-activated protein kinase kinase kinase kinase 2)	-0.729	0.924	0.33	0.0428	-0.0491
ARAF (A-Raf proto-oncogene, serine/threonine kinase)	0.472	1	-0.142	0.058	-0.0667
HUNK (hormonally up-regulated Neu-associated kinase)	0.472	1	0.337	-0.00834	0.0965
CASP8 (caspase 8)	0.472	1	-0.00471	0.0028	-0.0667
BCKDK (branched chain keto acid dehydrogenase kinase)	0.472	1	0.122	-0.0115	-0.0667
FN1 (fibronectin 1)	0.472	1	-0.126	-0.0115	-0.0667
WNK1 (WNK lysine deficient protein kinase 1)	0.472	1	0.0799	0.069	0.0657
NME1 (NME/NM23 nucleoside diphosphate kinase 1)	0.472	1	0.0691	-0.0115	-0.0667
STK11 (serine/threonine kinase 11)	-0.128	0.962	0.189	0.0718	-0.102
RPS6KL1 (ribosomal protein S6 kinase like 1)	0.472	1	0.0352	0.219	0.181
MELK (maternal embryonic leucine zipper kinase)	0.472	1	-0.0721	-0.0115	-0.0667
STK32C (serine/threonine kinase 32C)	0.305	0.989	-0.151	0.0573	-0.0765
GCK (glucokinase)	-3.03 (active)	0.779	0.313	-0.0177	-0.0495
CAMKV (CaM kinase like vesicle associated)	0.472	1	0.16	-0.0115	-0.0667
EPHA1 (EPH receptor A1)	0.472	1	0.108	0.00673	-0.0667
PDK4 (pyruvate dehydrogenase kinase 4)	0.472	1	0.179	-0.0115	-0.0667
PCK1 (phosphoenolpyruvate carboxykinase 1)	-2.2	0.832	0.0294	-0.178	-0.112
MAK (male germ cell associated kinase)	0.472	1	-0.0871	-0.0115	0.0179
PDK3 (pyruvate dehydrogenase kinase 3)	-2.84	0.791	-0.131	0.00593	-0.202
TRPM6	-0.112	0.963	-0.0538	-0.0478	-0.101
GSK3B (glycogen synthase kinase 3 beta)	0.472	1	-0.142	-0.0115	-0.0218
AKAP9 (A-kinase anchoring protein 9)	0.472	1	-0.0544	0.0098	-0.0667
PIK3C3 (phosphatidylinositol 3-kinase catalytic subunit type 3)	-1.2	0.894	0.0729	-0.116	-0.165
FN3KRP (fructosamine 3 kinase related protein)	0.472	1	0.0952	0.194	0.159
RPS6KA5 (ribosomal protein S6 kinase A5)	0.472	1	0.28	0.112	0.145
CPNE3 (copine 3)	0.472	1	0.165	-0.0115	-0.061
RET (ret proto-oncogene)	0.472	1	-0.129	0.179	-0.0667
RTN4 (reticulon 4)	-0.157	0.96	-0.106	-0.0507	-0.104
AK2 (adenylate kinase 2)	0.472	1	0.221	0.0157	-0.0667
GALK1 (galactokinase 1)	0.472	1	0.0461	-0.0115	-0.0667
MAP2K4 (mitogen-activated protein kinase kinase 4)	0.472	1	0.0748	-0.0115	-0.0667
PIK3C2B	0.472	1	-0.0187	-0.0115	-0.0667
PGK2 (phosphoglycerate kinase 2)	0.472	1	-0.0165	-0.0115	-0.0667
MAP4K5 (mitogen-activated protein kinase kinase kinase kinase 5)	0.452	0.999	0.0339	-0.0127	-0.0679
PIP4K2C (phosphatidylinositol-5-phosphate 4-kinase type 2 gamma)	0.472	1	-0.0435	0.00602	-0.0479
GUCY2C (guanylate cyclase 2C)	0.472	1	-0.115	0.176	0.00124
RIPK2 (receptor interacting serine/threonine kinase 2)	0.472	1	-0.142	-0.0115	0.00975
PRKCE (protein kinase C epsilon)	0.472	1	0.107	-0.0115	-0.0667
CAMK1D (calcium/calmodulin dependent protein kinase ID)	0.472	1	0.0431	0.0978	-0.0667
CSF1R (colony stimulating factor 1 receptor)	0.263	0.987	0.0641	0.727	0.0957
PRKX (protein kinase cAMP-dependent X-linked catalytic subunit)	0.472	1	-0.0364	-0.0115	-0.0667
ULK2 (unc-51 like autophagy activating kinase 2)	0.472	1	-0.0239	0.102	0.175
STRADA (STE20 related adaptor alpha)	0.472	1	-0.087	-0.0115	-0.0667
CAD	0.472	1	-0.0653	-0.0115	-0.0238
PKN2 (protein kinase N2)	-1.05	0.904	0.0447	0.218	-0.0415
BPTF (bromodomain PHD finger transcription factor)	0.472	1	0.27	0.299	0.098
MAP3K2 (mitogen-activated protein kinase kinase kinase 2)	0.342	0.992	0.132	-0.0196	-0.0744
PAK4 (p21 (RAC1) activated kinase 4)	0.472	1	0.276	0.167	-0.0667
GUCY2D (guanylate cyclase 2D, retinal)	-2.4	0.819	0.102	0.203	0.103
PRKCZ (protein kinase C zeta)	0.472	1	0.155	0.0471	0.0934
PAK6 (p21 (RAC1) activated kinase 6)	0.406	0.996	-0.0586	-0.0155	0.143
NEK9 (NIMA related kinase 9)	0.472	1	0.209	-0.0115	-0.0667
CDK10 (cyclin dependent kinase 10)	0.472	1	-0.142	0.0686	-0.0667
IRAK2 (interleukin 1 receptor associated kinase 2)	0.472	1	-0.00405	-0.0115	-0.0667
CALM2 (calmodulin 2)	0.472	1	0.0235	0.02	-0.0667
IP6K3 (inositol hexakisphosphate kinase 3)	0.472	1	0.156	0.218	0.0384
AURKB (aurora kinase B)	0.472	1	0.0891	-0.0115	0.175
SMC1A (structural maintenance of chromosomes 1A)	0.472	1	0.184	-0.0115	0.169
RIPK4 (receptor interacting serine/threonine kinase 4)	0.472	1	-0.0425	-0.0115	-0.0537
PFKFB1 (6-phosphofructo-2-kinase/fructose-2,6-biphosphatase 1)	-1.41	0.881	0.243	0.11	0.0822

Sorted by “viability robust z-score, siRNA alone” (lowest first): some entries from above.
Target gene	viability robust z-score, siRNA alone	viability vs control, siRNA alone	synergy score with BYL719	synergy score with cetuximab	synergy score with trametinib
PDK3 (pyruvate dehydrogenase kinase 3)	-2.84	0.791	-0.131	0.00593	-0.202
PIK3C3 (phosphatidylinositol 3-kinase catalytic subunit type 3)	-1.2	0.894	0.0729	-0.116	-0.165
TRPM6	-0.112	0.963	-0.0538	-0.0478	-0.101
MAK (male germ cell associated kinase)	0.472	1	-0.0871	-0.0115	0.0179
GSK3B (glycogen synthase kinase 3 beta)	0.472	1	-0.142	-0.0115	-0.0218
AKAP9 (A-kinase anchoring protein 9)	0.472	1	-0.0544	0.0098	-0.0667
FN3KRP (fructosamine 3 kinase related protein)	0.472	1	0.0952	0.194	0.159
RPS6KA5 (ribosomal protein S6 kinase A5)	0.472	1	0.28	0.112	0.145
CPNE3 (copine 3)	0.472	1	0.165	-0.0115	-0.061
